This is an account of results in PMC8347876.

No constants are given. Whether binding was seen depends on the method and setting. For some assays here: Binding seen in cells or lysates may run through a third protein. Some binding calls cover weakened binding; strength is not graded here. For some assays here: Tags and fused reporters may be left off the sequences shown.

The target of assay [1] is T1, SKP2A (1-360) (Arabidopsis thaliana) (UniProt Q9LPL4).
T1 sequence: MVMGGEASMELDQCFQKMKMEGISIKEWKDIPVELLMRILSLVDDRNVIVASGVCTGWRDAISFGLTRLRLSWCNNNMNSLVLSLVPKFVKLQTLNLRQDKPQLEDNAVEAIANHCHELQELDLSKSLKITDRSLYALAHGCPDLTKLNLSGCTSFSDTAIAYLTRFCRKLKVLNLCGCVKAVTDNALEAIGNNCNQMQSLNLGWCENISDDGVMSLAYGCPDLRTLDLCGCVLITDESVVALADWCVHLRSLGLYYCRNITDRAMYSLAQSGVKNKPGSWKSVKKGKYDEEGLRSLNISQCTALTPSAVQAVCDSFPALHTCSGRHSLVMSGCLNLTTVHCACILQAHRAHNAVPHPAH
As to the kind of experiment: two-hybrid; OSM34 (42-244) in pGADT7, SKP2A (1-360) in pGBKT7, co-transformed into yeast AH109; growth on QDO media (-Ade/-His/-Leu/-Trp) containing 10 mM 3-AT.

Assay [2] addresses T2, OSM34-GFP (Arabidopsis thaliana) (UniProt P50700).
T2 sequence: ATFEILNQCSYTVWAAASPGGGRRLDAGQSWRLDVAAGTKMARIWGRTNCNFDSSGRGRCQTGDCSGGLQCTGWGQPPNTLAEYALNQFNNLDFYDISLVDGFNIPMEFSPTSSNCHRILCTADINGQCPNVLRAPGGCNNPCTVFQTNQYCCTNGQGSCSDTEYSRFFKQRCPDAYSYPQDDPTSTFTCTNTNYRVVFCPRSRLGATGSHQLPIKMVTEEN
As to the kind of experiment: co-IP; total protein extracts of Arabidopsis transgenic lines expressing either OSM34-GFP or SKP2A-HA mixed; anti-GFP-Sepharose beads, 4 °C overnight; 150 mM NaCl, 50 mM Tris pH 7.5, 0.01% NP-40, 10 mM MgCl2, 10% glycerol; blot with anti-HA.

B1: N-terminal-deleted OSM34 (42-244) (domain or fragment, UniProt P50700 42-244)
chain: GGGRRLDAGQSWRLDVAAGTKMARIWGRTNCNFDSSGRGRCQTGDCSGGLQCTGWGQPPNTLAEYALNQFNNLDFYDISLVDGFNIPMEFSPTSSNCHRILCTADINGQCPNVLRAPGGCNNPCTVFQTNQYCCTNGQGSCSDTEYSRFFKQRCPDAYSYPQDDPTSTFTCTNTNYRVVFCPRSRLGATGSHQLPIKMVTEEN
B1: the binding entry in assay [1] is reported as “binds”.

B2: SKP2A-HA (protein, UniProt Q9LPL4 1-360)
chain: T1 sequence
With B2, the binding entry in assay [2] is “binds”.
